Assay results from the supplement of paper PMC6078165.

Test system: HCC1143
Experiment: relative JC-1 red fluorescence (viability) vs pre-drug, coculture with fibroblast (fraction); higher = more viable cancer cells
Settings: 100 µM
Protocol: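 JC-1 labelled TNBC cells cocultured 1:1 (1,500 cells each) with CellTrace Violet stained primary or stromal fibroblasts in 384-well plates in FluoroBrite medium, treated with one of 42 anticancer drugs at 0.1, 1, 10 or 100 uM. JC-1 red fluorescence (mitochondrial integrity in cancer cells only) was read by plate reader every 8 h for 72 h. Values are normalised to each well's pre-drug value. The stock of one drug was tenfold lower, so its dose labels may be too high.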

O=NN(CCCl)C(=O)NC1CCCCC1 [Lomustine]
relative JC-1 red fluorescence
Settings | 8 h | 16 h | 24 h | 32 h | 40 h | 48 h | 56 h | 64 h | 72 h
coculture fibroblast: C12385 | 0.7573 | 0.699 | 0.648 | 0.594 | 0.539 | 0.51 | 0.484 | 0.454 | 0.44
coculture fibroblast: H6013 | 0.676 | 0.608 | 0.562 | 0.544 | 0.502 | 0.5 | 0.487 | 0.482 | 0.438
coculture fibroblast: H6019 | 0.779 | 0.697 | 0.644 | 0.596 | 0.561 | 0.559 | 0.53 | 0.504 | 0.482
coculture fibroblast: H6076 | 0.753 | 0.702 | 0.667 | 0.65 | 0.592 | 0.589 | 0.565 | 0.55 | 0.56
coculture fibroblast: H6231 | 0.759 | 0.76 | 0.681 | 0.6 | 0.579 | 0.552 | 0.517 | 0.477 | 0.4658
coculture fibroblast: HADF | 0.695 | 0.621 | 0.572 | 0.555 | 0.477 | 0.457 | 0.433 | 0.415 | 0.396
coculture fibroblast: HCFa | 0.709 | 0.666 | 0.61 | 0.583 | 0.519 | 0.498 | 0.468 | 0.45 | 0.415
coculture fibroblast: HCPF | 0.7598 | 0.776 | 0.699 | 0.608 | 0.607 | 0.574 | 0.535 | 0.503 | 0.486
coculture fibroblast: HHSteC | 0.7586 | 0.705 | 0.682 | 0.656 | 0.599 | 0.579 | 0.553 | 0.535 | 0.476
coculture fibroblast: HMF | 0.7304 | 0.7705 | 0.6764 | 0.567 | 0.5479 | 0.5166 | 0.4738 | 0.447 | 0.4255
coculture fibroblast: HPFa | 0.817 | 0.722 | 0.686 | 0.596 | 0.55 | 0.53 | 0.485 | 0.453 | 0.423
coculture fibroblast: HUF | 0.8 | 0.65 | 0.578 | 0.505 | 0.458 | 0.443 | 0.402 | 0.387 | 0.384
coculture fibroblast: Hs5 | 0.8121 | 0.815 | 0.76133 | 0.729 | 0.665 | 0.632 | 0.608 | 0.59 | 0.587
coculture fibroblast: Hs27A | 0.701 | 0.6529 | 0.6178 | 0.625 | 0.521 | 0.525 | 0.505 | 0.502 | 0.475
coculture fibroblast: Hs343T | 0.7706 | 0.774 | 0.704 | 0.6309 | 0.599 | 0.563 | 0.525 | 0.497 | 0.462
coculture fibroblast: WS1 | 0.7503 | 0.681 | 0.653 | 0.607 | 0.573 | 0.557 | 0.52 | 0.495 | 0.482

The reference is the same well before dosing, and untreated signal decays as well.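 Fibroblast labels denote human fibroblasts, mainly primary ones from uterus (C12385, HUF), lung (H6013), bone (Hs27A), adrenal (HADF) and skin (WS1), plus mammary HMF and breast cancer-associated Hs343T. Cancer cells are basal-like or mesenchymal-like triple-negative breast cancer lines. A hit is a response shift exceeding 3x replicate standard deviation. The tissue of the other fibroblasts is not given here.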
